Assay results reported in PubChem BioAssay AID1347076 (National Center for Advancing Translational Sciences (NCATS), 2019).
“And” between values parts separate entries of the source, which are not always exact repeats. Equal entries are not always repeated. Screen size: about 400,000 compounds; about 13,000 (3.2%) were called active. This list was built around the results that the source calls inconclusive (neither active nor inactive); the mix of calls is not that of the screen. Calls come from the whole dose curve; as a rule, active = well fitted cell-killing curve with a large enough effect; inconclusive = small, poorly fitted or top-dose-only effect, or effect the other way; inactive = flat fitted curve, though single readings scatter. Potencies beside an inconclusive call are fits to weak or partial responses and may not hold up.
% is set by controls: 0 for no effect and ±100 for the full control effect; potency is the fitted concentration of half-maximal effect.

Assay: qHTS assay for MDR1-selective chemotherapeutics: Primary screen using the drug-selected MDR subline cells KB-V1; note: nearly all actives have a fitted effect of over 60% in size
Conditions: KB-V1 MDR cells viability, CellTiter-Glo, 72 h; activity change, negative = cytotoxicity: at 46.1 µM (top of the series)
Method in brief: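 qHTS viability screen in drug-selected KB-V1 MDR cells: 72 h compound treatment at 37 degrees C, ATP luminescence end point.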
For `CC(C)C[C@H]1CN=C(N(C)C)N1CCCCc1ccccc1`, the Potency was inconclusive: 18.4 µM [rising, single point].
For `CCN1CC2=C(OC(N)=C(C#N)C2c2cccs2)/C(=C\c2cccs2)C1` (stereo not given), the “activity change, negative = cytotoxicity” value was inactive: -26%.
With `c1ccc(Cc2noc(CN3CCCC(CN4CCOCC4)C3)n2)cc1` (stereo not given) the Potency was inconclusive: 25.9 µM [cytotoxic, single point].
For `Cc1cc(C)n(CCc2nc(-c3ccc(-c4ccccc4)cc3)cs2)n1`, the Potency was inconclusive: 29.1 µM [cytotoxic, single point].
In the case of `CC(C)C1C(=O)N(Cc2cn(CCC3OCCO3)nn2)CCS(=O)(=O)N1Cc1ccc(-c2ccccc2Cl)cc1` (stereo not given), the Potency is reported as inconclusive: 23.1 µM [cytotoxic, single point].
With `Cc1cccc2cc(CN(Cc3ccco3)S(=O)(=O)c3ccc4c(c3)OCCO4)c(=O)[nH]c12` the “activity change, negative = cytotoxicity” value was inactive: -13.5%.
In the case of `COC(=O)c1cc(C(=O)OCC(=O)NNC(=O)c2cccs2)cc([N+](=O)[O-])c1`, the “activity change, negative = cytotoxicity” value is reported as inactive: -3.67%.
With `O=C(NNS(=O)(=O)c1ccc(Br)cc1)c1csnn1` the Potency was inconclusive: 3.66 µM [rising, partial curve, poor fit].
With `O=C(O)CSCC(=O)NCc1ccc(Cl)cc1` the Potency was inconclusive: 20.6 µM [rising, single point].
In the case of `Cc1ccc(CSc2nnc(CCNC(=O)OC(C)(C)C)o2)cc1`, the Potency is reported as inconclusive: 11.6 µM [cytotoxic, partial curve] and inconclusive: 9.2 µM [cytotoxic, partial curve].
With `CC(C(=O)NC1C=CS(=O)(=O)C1)N1C(=O)/C(=C/c2cccc(Cl)c2)SC1=S` (stereo not given) the “activity change, negative = cytotoxicity” value was inactive: 12.2%.
For `CCOC(=O)N1CCN(C(=O)c2cc3c(-c4cccc(OC)c4)nn(C)c3s2)CC1`, the Potency was inconclusive: 10.3 µM [cytotoxic, single point].
With `CSc1nsc(SCC(=O)Nc2ccccc2C(N)=O)n1` the Potency was inconclusive: 29.1 µM [cytotoxic, single point].
For `Cn1c(=O)c2c(nc(NCc3ccco3)n2Cc2ccc(Cl)cc2Cl)n(C)c1=O`, the “activity change, negative = cytotoxicity” value was inactive: 3.1%.
For `CCOc1ccc2nc(N3CCC(C(=O)N4CCN(c5ncccn5)CC4)CC3)sc2c1`, the “activity change, negative = cytotoxicity” value was inactive: -9.17%.
With `Nc1ccc(C(=O)N/N=C/c2cn(Cc3ccccc3F)c3ccccc23)cc1` the “activity change, negative = cytotoxicity” value was inactive: -22.6%.
In the case of `COc1ccc(-c2noc(CC(=O)Nc3ccc(F)cc3F)n2)cc1`, the “activity change, negative = cytotoxicity” value is reported as inactive: 17.9%.
With `O=C(NCc1cccs1)C1CCCN(c2ncccn2)C1` (stereo not given) the Potency was inconclusive: 23.1 µM [cytotoxic, single point].
For `Cc1ccc(-c2nnc(Nc3cccc(O)c3)c3ccccc23)cc1S(=O)(=O)N1CCOCC1`, the “activity change, negative = cytotoxicity” value was inactive: 0.116%.
With `CC1CC(C)CN(CCCNC(=O)CC2Oc3ccccc3NC2=O)C1` (stereo not given) the “activity change, negative = cytotoxicity” value was inactive: -12.8%.
In the case of `COc1ccc(N(CC(=O)NCc2cccs2)S(=O)(=O)c2cccc(C)c2)cc1`, the “activity change, negative = cytotoxicity” value is reported as inactive: -18.1%.
In the case of `O=S(=O)(c1ccc2c(c1)CCC2)N1CCNCC1`, the “activity change, negative = cytotoxicity” value is reported as inactive: 1.08%.
For `CCC(c1nnnn1Cc1ccco1)N(Cc1ccccc1OC)Cc1cc2cc(C)ccc2[nH]c1=O` (stereo not given), the Potency was active: 13 µM.
With `CC1=CC(C)(C)N2C(=O)C(=O)c3cc(OC(=O)c4ccco4)cc1c32` the Potency was inconclusive: 18.4 µM [cytotoxic, single point].
With `COc1cc(NC(=O)COc2cc(O)c3c(c2)OC(C)(C)CC3=O)cc(OC)c1OC` the Potency was inconclusive: 13 µM [cytotoxic, partial curve, poor fit].
With `CCN(CC)CCCNC(=O)c1ccc(-c2nc(CN3CCc4ccccc43)c(C)o2)cc1` the Potency was inconclusive: 9.2 µM [cytotoxic, partial curve, poor fit].
With `CCOc1ccc(Nc2ncnc3ccc([N+](=O)[O-])cc23)cc1` the “activity change, negative = cytotoxicity” value was inactive: -25.4%.
In the case of `Cc1oc2cc([N+](=O)[O-])c(O)c([N+](=O)[O-])c2c1C(=O)c1ccc(Cl)cc1`, the Potency is reported as inconclusive: 16.4 µM [cytotoxic, partial curve].
In the case of `COC(=O)C(NC(=O)c1ccccc1)C(C)(C)SCc1ccccc1` (stereo not given), the Potency is reported as inconclusive: 23.1 µM [cytotoxic, partial curve, poor fit].
For `c1ccc(-n2ncc3c(NCc4ccc5c(c4)OCO5)ncnc32)cc1`, the Potency was active: 20.6 µM.
With `O=C(CSc1nnc(-c2ccccc2)o1)c1cccc([N+](=O)[O-])c1` the “activity change, negative = cytotoxicity” value was inactive: 10.3%.
For `CCOC(=O)Cc1csc(NC(=O)CSc2nc(N)c3c(C)c(C)sc3n2)n1`, the Potency was active: 8.2 µM.
For `CCCc1nc2oc3c(NCCN4CCOCC4)ncnc3c2c2c1CCCC2`, the Potency was active: 1.84 µM.
For `CC(=O)c1c(C)cc(C)c(CSc2nc(C)cc(=O)[nH]2)c1C`, the Potency was inconclusive: 20.6 µM [cytotoxic, single point].
In the case of `COc1ccc(S(=O)(=O)NCC(c2ccc3c(c2)OCO3)N2CCOCC2)cc1C` (stereo not given), the Potency is reported as inconclusive: 23.1 µM [cytotoxic, single point].
For `O=C(CCNS(=O)(=O)c1ccccc1F)N1CCN(C/C=C/c2ccccc2)CC1`, the Potency was inconclusive: 5.8 µM [cytotoxic, partial curve, poor fit].
With `CCCc1nc2ccc(C)cn2c1Cc1ccccc1OC` the Potency was inconclusive: 20.6 µM [cytotoxic, single point].
With `C=CCn1cc(C(=O)NCCOC)c(=O)c2cc(S(=O)(=O)N3CCCCCC3)ccc21` the “activity change, negative = cytotoxicity” value was inactive: -0.0343%.
For `Nc1nc(N)c2cc(S(=O)(=O)c3cccc(C(F)(F)F)c3)ccc2n1`, the Potency was inconclusive: 14.6 µM [cytotoxic, partial curve, poor fit].
For `O=C(c1ccc(F)cc1)N(NC(=O)C(O)(c1ccccc1)c1ccccc1)c1ccccc1`, the Potency was inconclusive: 18.4 µM [cytotoxic, partial curve, poor fit].
In the case of `O=C(Nc1ccc(F)cc1Cl)C1CCN(C(=O)Nc2ccccc2)CC1`, the “activity change, negative = cytotoxicity” value is reported as inactive: 6.74%.
With `O=C1NC(Nc2nc3ccccc3s2)(C(F)(F)F)C(=O)N1C1CCCCC1` (stereo not given) the Potency was inconclusive: 29.1 µM [cytotoxic, single point].
In the case of `Cc1ccc(-n2c3c(cc(C(=O)NCCCN4CCOCC4)c2=O)C(=O)CC(C)(C)C3)cc1`, the Potency is reported as inconclusive: 20.6 µM [rising, single point].
For `O=C(NCc1ccccc1)C1c2ccccc2OCC(=O)N1CCCN1CCOCC1` (stereo not given), the “activity change, negative = cytotoxicity” value was inactive: 0%.
In the case of `CCCN1CCN(S(=O)(=O)c2ccc(OC)c(Br)c2)CC1`, the Potency is reported as inconclusive: 20.6 µM [cytotoxic, partial curve, poor fit].
In the case of `CC1OC(C(C)(C)C)Cc2[nH][nH]c(=O)c21` (stereo not given), the Potency is reported as inconclusive: 5.8 µM [rising, partial curve].
For `O=C(COc1ccc(F)cc1)N(Cc1cccs1)C1CCS(=O)(=O)C1` (stereo not given), the Potency was inconclusive: 29.1 µM [rising, single point].
For `Cc1ccn2cc(-c3ccc(NS(=O)(=O)c4ccccc4)cc3)nc2c1`, the Potency was active: 16.4 µM.
In the case of `CCCCN(C)CCOc1ccccc1OCC`, the Potency is reported as inconclusive: 4.61 µM [cytotoxic, partial curve, poor fit].
For `CC(=O)Nc1cc(-c2ccccc2CN(C)C)cn2c(-c3ccc(C(C)=O)cc3)cnc12`, the Potency was inconclusive: 18.4 µM [cytotoxic, single point].
In the case of `c1ccc(C(c2nnnn2C2CCCCC2)N2CCc3ccccc3C2)nc1` (stereo not given), the Potency is reported as inconclusive: 6.51 µM [cytotoxic, partial curve].
With `COCC(=O)Nc1cc(C(=O)NCCc2ccccc2)ccc1Cl` the Potency was inconclusive: 29.1 µM [cytotoxic, single point].
For `CC(=NNC(=S)N1CCCCCC1)c1ccccn1`, the Potency was inconclusive: 0.206 µM [cytotoxic, full curve, poor fit].
With `CCCOc1cccc(-c2cc(C(=O)N/N=C/c3cccnc3)c3ccccc3n2)c1` the Potency was inconclusive: 23.1 µM [cytotoxic, single point].
For `CCC(=O)Nc1cc(-c2nn(C)c(=O)c3ccccc23)ccc1OC`, the Potency was active: 11.6 µM.
With `O=S(=O)(/N=C(/c1ccccc1)N1CCOCC1)c1ccc(F)cc1F` the Potency was inconclusive: 0.0259 µM [cytotoxic, full curve].
For `COc1ccc(-c2oc3ccccc3c2C#CC(C)(C)O)cc1`, the “activity change, negative = cytotoxicity” value was inactive: 8.75%.
With `Cc1ccc(OCCOCCOc2ccc(Br)cc2/C=N\NC(=O)c2ccncc2)cc1` the Potency was inconclusive: 29.1 µM [cytotoxic, single point].
In the case of `CC(C)(C)c1ccc(NC(=O)COC(=O)c2ccccc2OCC(=O)Nc2ccc(Br)cc2)cc1`, the “activity change, negative = cytotoxicity” value is reported as inactive: -15.2%.
For `O=c1cc(O)nc[nH]1`, the Potency was inconclusive: 29.1 µM [rising, single point].
For `CC(=O)N1CCCc2cc(S(=O)(=O)N3CCC(C(=O)Nc4cccc(Cl)c4C)CC3)ccc21`, the “activity change, negative = cytotoxicity” value was inactive: 12.2%.
For `COc1ccccc1NC(=O)NC1(C(=O)N2CCCCC2)CCCCC1`, the Potency was inconclusive: 0.461 µM [rising, full curve, poor fit].
With `CCOc1ccccc1NC(=O)C1CCCN1C(=O)c1cccs1` (stereo not given) the “activity change, negative = cytotoxicity” value was inactive: 4.52%.
For `O=C(NCc1cccnc1)c1ccc(COc2ccccc2Br)cc1`, the Potency was inconclusive: 18.4 µM [cytotoxic, single point].
For `S=C(NNc1ccc2ccccc2c1)NC1CCCCC1`, the Potency was inconclusive: 18.4 µM [cytotoxic, partial curve].
With `COc1ccc(N2CCN(C(=O)CCn3nc(C)c(S(=O)(=O)N4CCCC4)c3C)CC2)cc1` the “activity change, negative = cytotoxicity” value was inactive: -9.78%.
For `CCOC(=O)c1noc(C)c1C(=O)Nc1nc(C)cc(C)n1`, the Potency was inconclusive: 29.1 µM [rising, single point].
With `COC(=O)c1ccc(/C=C/c2ccc3cccc(OC)c3n2)cc1` the Potency was inconclusive: 20.6 µM [cytotoxic, partial curve].
For `CCOc1ccccc1CN1CCC(CO)(CCOc2ccccc2)CC1`, the “activity change, negative = cytotoxicity” value was inactive: -23.9%.
In the case of `COc1ccc2cc(CN(Cc3cccs3)Cc3nnnn3Cc3ccccc3)c(=O)[nH]c2c1`, the Potency is reported as inconclusive: 23.1 µM [cytotoxic, single point].
